US20230220057A1 (STAIDSON BEIJING BIOPHARMACEUTICALS, published 2023)
Positions count from the first letter of the chain named. These are yes or no findings as the source states them, for the method shown. Some entries that bind do so weakly or less than the wild type.

By UniProt entry, the sequences of proteins in these tests, tags left out. Where a name states a change or a piece, a line headed by the entry shows the natural chain unless it says otherwise.
UniProt P01138: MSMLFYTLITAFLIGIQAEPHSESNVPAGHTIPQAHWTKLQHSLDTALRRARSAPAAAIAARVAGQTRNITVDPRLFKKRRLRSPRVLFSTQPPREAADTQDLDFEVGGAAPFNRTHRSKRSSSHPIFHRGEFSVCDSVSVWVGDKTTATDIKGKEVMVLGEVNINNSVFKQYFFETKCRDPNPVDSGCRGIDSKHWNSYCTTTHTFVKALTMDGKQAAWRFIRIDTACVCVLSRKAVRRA

B1: Ab1 (antibody, human IgG1, V domains shown)
VH: EVQLVQSGAEVKKPGATVKISCKVSGYTFITYWISWVQQAPGKGLEWMGAIDPSDSDARYSPSFQGRVTITADTSTDTAYMELSSLRSEDTAVYYCAKSDPGYSGYSLLYGFDSWGQGTLVTVSS
VL: DIVMTQTPLSSPVTLGQPASISCRSSQSLVQRNGNTYLSWLQQRPGQPPRLLIYQVSNRYSGVPDRFSGSGAGTDFTLKISRVEAEDVGVYYCGQGAHLPLTFGQGTKVEIK
notes: Lead antibody; also called Abl
B2: Ab2 (antibody, human IgG1, V domains shown)
VH: B1 VH
VL: B1 VL with L41Y
B3: Ab3 (antibody, human IgG1, V domains shown)
VH: B1 VH
VL: B1 VL with I2V, T7S, S11L, L41F, P48S, A72S
B4: Ab5 (antibody, human IgG1, V domains shown)
VH: B1 VH
VL: B1 VL with I2V, T7S, S11L, L41Y, A72S
B5: Ab7 (antibody, human IgG1, V domains shown)
VH: B1 VH
VL: B1 VL with T7S, S11L, L41F, P48S, A72S
B6: Ab8 (antibody, human IgG1, V domains shown)
VH: B1 VH
VL: B1 VL with T7S, S11L, L41Y, P48S, A72S
B7: Ab9 (antibody, human IgG1, V domains shown)
VH: B1 VH
VL: B1 VL with T7S, S11L, L41Y, A72S
B8: Ab10 (antibody, human IgG1, V domains shown)
VH: B1 VH
VL: B1 VL with T7S, S11L, L41F, A72S
B9: Ab11 (antibody, human IgG1, V domains shown)
VH: B1 VH with T28S
VL: B1 VL
B10: Ab12 (antibody, human IgG1, V domains shown)
VH: B1 VH with T28S
VL: B1 VL with L41Y
B11: Ab13 (antibody, human IgG1, V domains shown)
VH: B1 VH with T28S
VL: B1 VL with I2V, T7S, S11L, L41F, P48S, A72S
B12: Ab14 (antibody, human IgG1, V domains shown)
VH: B1 VH with T28S
VL: B1 VL with I2V, T7S, S11L, L41Y, P48S, A72S
B13: Ab15 (antibody, human IgG1, V domains shown)
VH: B1 VH with T28S
VL: B1 VL with I2V, T7S, S11L, L41Y, A72S
B14: Ab17 (antibody, human IgG1, V domains shown)
VH: B1 VH with T28S
VL: B1 VL with T7S, S11L, L41F, P48S, A72S
B15: Ab18 (antibody, human IgG1, V domains shown)
VH: B1 VH with T28S
VL: B1 VL with T7S, S11L, L41Y, P48S, A72S
B16: Ab19 (antibody, human IgG1, V domains shown)
VH: B1 VH with T28S
VL: B1 VL with T7S, S11L, L41Y, A72S
B17: Ab20 (antibody, human IgG1, V domains shown)
VH: B1 VH with T28S
VL: B1 VL with T7S, S11L, L41F, A72S
B18: Ab21 (antibody, human IgG1, V domains shown)
VH: B1 VH with T28S, T74K
VL: B1 VL
B19: Ab22 (antibody, human IgG1, V domains shown)
VH: B1 VH with T28S, T74K
VL: B1 VL with L41Y
B20: Ab23 (antibody, human IgG1, V domains shown)
VH: B1 VH with T28S, T74K
VL: B1 VL with I2V, T7S, S11L, L41F, P48S, A72S
B21: Ab24 (antibody, human IgG1, V domains shown)
VH: B1 VH with T28S, T74K
VL: B1 VL with I2V, T7S, S11L, L41Y, P48S, A72S
B22: Ab25 (antibody, human IgG1, V domains shown)
VH: B1 VH with T28S, T74K
VL: B1 VL with I2V, T7S, S11L, L41Y, A72S
B23: Ab26 (antibody, human IgG1, V domains shown)
VH: B1 VH with T28S, T74K
VL: B1 VL with I2V, T7S, S11L, L41F, A72S
B24: Ab27 (antibody, human IgG1, V domains shown)
VH: B1 VH with T28S, T74K
VL: B1 VL with T7S, S11L, L41F, P48S, A72S
B25: Ab28 (antibody, human IgG1, V domains shown)
VH: B1 VH with T28S, T74K
VL: B1 VL with T7S, S11L, L41Y, P48S, A72S
B26: Ab29 (antibody, human IgG1, V domains shown)
VH: B1 VH with T28S, T74K
VL: B1 VL with T7S, S11L, L41Y, A72S
B27: Ab30 (antibody, human IgG1, V domains shown)
VH: B1 VH with T28S, T74K
VL: B1 VL with T7S, S11L, L41F, A72S
B28: Ab31 (antibody, human IgG1, V domains shown)
VH: B1 VH with T74K
VL: B1 VL
B29: Ab32 (antibody, human IgG1, V domains shown)
VH: B1 VH with T74K
VL: B1 VL with L41Y
B30: Ab33 (antibody, human IgG1, V domains shown)
VH: B1 VH with T74K
VL: B1 VL with I2V, T7S, S11L, L41F, P48S, A72S
B31: Ab34 (antibody, human IgG1, V domains shown)
VH: B1 VH with T74K
VL: B1 VL with I2V, T7S, S11L, L41Y, P48S, A72S
B32: Ab35 (antibody, human IgG1, V domains shown)
VH: B1 VH with T74K
VL: B1 VL with I2V, T7S, S11L, L41Y, A72S
B33: Ab38 (antibody, human IgG1, V domains shown)
VH: B1 VH with T74K
VL: B1 VL with T7S, S11L, L41Y, P48S, A72S
B34: Ab39 (antibody, human IgG1, V domains shown)
VH: B1 VH with T74K
VL: B1 VL with T7S, S11L, L41Y, A72S
B35: Ab40 (antibody, human IgG1, V domains shown)
VH: B1 VH with T74K
VL: B1 VL with T7S, S11L, L41F, A72S
B36: Ab6 (antibody, human IgG1, V domains shown)
VH: B1 VH
VL: B1 VL with I2V, T7S, S11L, L41F, A72S
B37: Ab4 (antibody, human IgG1, V domains shown)
VH: B1 VH
VL: B1 VL with I2V, T7S, S11L, L41Y, P48S, A72S
B38: Ab16 (antibody, human IgG1, V domains shown)
VH: B1 VH with T28S
VL: B1 VL with I2V, T7S, S11L, L41F, A72S
B39: Ab36 (antibody, human IgG1, V domains shown)
VH: B1 VH with T74K
VL: B1 VL with I2V, T7S, S11L, L41F, A72S
B40: Ab37 (antibody, human IgG1, V domains shown)
VH: B1 VH with T74K
VL: B1 VL with T7S, S11L, L41F, P48S, A72S
B41: Ab61 (antibody, human IgG1, V domains shown)
VH: B1 VH
VL: B1 VL with I2V, T7S, S11L, G34A, L41Y, P48S, A72S
B42: Ab49 (antibody, human IgG1, V domains shown)
VH: EVQLVQSGAEVKKPGESLKISCKGSGYSFITYWISWVRQMPGKGLEWMGAIDPSDSDARYSPSFQGQVTISADKSISTAYLQWSSLKASDTAMYYCAKSDPGYSGYSLLYGFDSWGQGTLVTVSS
VL: B1 VL with T7S, S11L, L41Y, A72S
B43: Ab41 (antibody, human IgG1, V domains shown)
VH: B42 VH
VL: B1 VL
B44: Ab43 (antibody, human IgG1, V domains shown)
VH: B42 VH
VL: B1 VL with I2V, T7S, S11L, L41F, P48S, A72S
B45: Ab45 (antibody, human IgG1, V domains shown)
VH: B42 VH
VL: B1 VL with I2V, T7S, S11L, L41Y, A72S
B46: Ab46 (antibody, human IgG1, V domains shown)
VH: B42 VH
VL: B1 VL with I2V, T7S, S11L, L41F, A72S
B47: Ab48 (antibody, human IgG1, V domains shown)
VH: B42 VH
VL: B1 VL with T7S, S11L, L41Y, P48S, A72S

The binders below were run against recombinantly produced human-NGF (human, UniProt P01138 122-241, limits assumed) (assay: NGF binding ELISA).

binding, binds:
B1
B2
B3
B4
B5
B6
B7
B8
B9
B10
B11
B12
B13
B14
B15
B16
B17
B18
B19
B20
B21
B22
B23
B24
B25
B26
B27
B28
B29
B30
B31
B32
B33
B34
B35
B36
B37
B38
B39
B40
B41
B42
B43
B44
B45
B46
B47
